PubChem BioAssay AID504804, Drosophila RNAi Screening Center – 2011

Aim: 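Knock-downs shielding fly cells from apoptosis caused by DNA damage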 (primary screen)
System: Drosophila Kc cells
Knock-down reagent: long dsRNA against Drosophila genes, 0.5 µg dsRNA per well
Timing: 96 h (48 h knock-down, then 48 h drug)
Treatment: doxorubicin 5 µg/ml for 48 h, added 48 h after dsRNA
Read-out: 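Viability measured as cellular ATP by luminescence after 48 h knock-down then 48 h doxorubicin at 5 µg/ml; unnormalised plate counts for each replicate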
Direction: raw ATP luminescence: higher = more viable cells, protection from doxorubicin
Rule for the call: 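Active when both duplicate wells lie at least 2 SD above the plate mean and protection is confirmed by rescreening and independent dsRNAs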
In all, the deposit lists about 19,000 reagents; below is an unselected part of those that have a named target and a result. Of all reagents, 47 (0.25%) were called active. 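Signals are raw, not normalised; exact z-scores behind calls not deposited; actives needed confirmation, so some wells reaching 2 SD are inactive.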 A number with no mark means an inactive call. Names joined by + are all predicted targets of the reagent.

no.	Target gene	amplicon	raw ATP luminescence, replicate 1	raw ATP luminescence, replicate 2
1	uno	DRSC07244	35787	67257
2	Poc1	DRSC09713	38020	44257
3	heca	DRSC16964	13430	17240
4	Ugt303B3	DRSC14199	55690	62720
5	Tep3	DRSC03452	30140	22700
6	Pfdn2	DRSC10618	88770	63840
7	Rgl	DRSC11267	51727	55977
8	Ctns	DRSC15175	83240	73820
9	unc79	DRSC15746	43020	37237
10	His4r	DRSC16703	36230	40580
11	CG14054	DRSC17909	46910	58590
12	CG15366 (retired record)	DRSC18039	47400	47850
13	ND-13A	DRSC03110	26593	32980
14	CR42785	DRSC04962	93103	1.08e5
15	Or94b	DRSC16773	62690	53060
16	Mmp1	DRSC04493	58370	63170
17	CG13255	DRSC11702	71283	63530
18	Tdc1	DRSC04942	91363	83753
19	ppk29	DRSC04205	41133	60063
20	CG31086 + CG31323	DRSC14902	58320	58560
21	CG31810	DRSC01560	2.93e5	2.55e5
22	ProtB	DRSC03373	45513	62293
23	ttk	DRSC14078	2.02e5	2.04e5
24	ttk	DRSC17091	35740	41200
25	bin	DRSC10332	65160	77840
26	mthl11	DRSC12779	93400	70720
27	CG16727	DRSC15139	59060	90580
28	CG12546	DRSC11676	59360	48063
29	Tsp86D	DRSC15607	48483	52497
30	Tailor	DRSC12526	72280	62387
31	CG10512	DRSC11615	57943	49360
32	Vmat + CG13330	DRSC06365	56747	57107
33	CG8399	DRSC07163	46010	66817
34	CG12224	DRSC14480	46710	49760
35	lz	DRSC18790	3.92e5	3.75e5
36	CG7849	DRSC04895	33167	44237
37	hth	DRSC16967	57957	50240
38	sens	DRSC09263	19380	22460
39	Mppe	DRSC07296	65067	47747
40	Or67c	DRSC11242	64220	66947
41	PH4alphaMP	DRSC17031	70680	44810
42	Socs44A	DRSC06828	43333	83593
43	5-HT2B	DRSC16360	61347	62110
44	5-HT2B	DRSC16362	51987	60033
45	CG17746	DRSC08521	49183	38253
46	Ifrd1	DRSC00415	43403	32697
47	Ifrd1	DRSC00566	32090	27937
48	Ugt37A3	DRSC15937	49063	46247
49	Tmem43	DRSC10964	65127	74727
50	CG14223	DRSC19580	3.04e5	2.88e5
51	REG	DRSC20273	3.30e5	2.70e5
52	CG5850	DRSC02905	82597	60437
53	CG17768 + LSm-4	DRSC02845	35520	69103
54	FarO	DRSC18475	57470	48300
55	CG14321	DRSC14800	32160	22250
56	CG4294	DRSC04460	47293	50353
57	CG17260	DRSC00497	1.08e5	78737

7 entries already listed, arranged by “raw ATP luminescence, replicate 2”, highest first:
Target gene	amplicon	raw ATP luminescence, replicate 1	raw ATP luminescence, replicate 2
CG16727	DRSC15139	59060	90580
bin	DRSC10332	65160	77840
mthl11	DRSC12779	93400	70720
Tailor	DRSC12526	72280	62387
Tsp86D	DRSC15607	48483	52497
CG10512	DRSC11615	57943	49360
CG12546	DRSC11676	59360	48063
